Assay results as given in patent USRE46170E1 (Novo Nordisk A/S, priority 2005, dated 2016).
Where “and” joins values, the source holds several entries; their conditions need not be identical. Equal entries are not always repeated.

Assay: general procedure: peptide synthesis; polystyrene resin with 2-chlorotrityl chloride linker (1.4 mmol/g), used for the acyl side-chain building block
Settings: lipidation step
[1] = analytical HPLC (C4, neutral and acidic buffers), run 1

| Substance | final HPLC purity [1] | final HPLC purity (acidic HPLC, 214 nm) [%] | final HPLC purity (neutral HPLC, 214 nm) [%] | further results |
| --- | --- | --- | --- | --- |
| N^εB29-(3-Carboxy-5-hexadecandioylamino-benzoyl) desB30 human insulin | 96.5% and 100% | – | – | – |
| N^εB29-(3-Carboxy-5-octadecandioylaminobenzoyl) des(B30) human insulin | 96.0% and 100% | – | – | – |
| N^εB29-(3-carboxy-4-hexdecandioylaminobenzoyl) desB30 human insulin | – | 83.4 | 92.6 | – |
| N^εB29-[3-Carboxy-5-(octadecandioyl-N-carboxyethylglycin)amino-benzoyl] desB30 insulin | – | – | – | final HPLC purity (acidic HPLC): 100%; final HPLC purity (neutral HPLC): 93.8.5%; step yield (overall for coupling and hydrolysis): 18% |
| N^εB29-{4-[2-(4-carboxymethylphenyl)ethyl]phenyl}acetyl-γ-L-glutamyl desB30 human insulin | – | 98.8 | 99.44 | – |
